In article PMC9845910:
No constants are given. Whether binding was seen depends on the method and setting. In cells and extracts the contact can be indirect. Some binding calls cover weakened binding; strength is not graded here. Sequences can lack the tags named with a protein.

Target: T1, GFP-Tht1 (twin horsetails protein 1, meiotic nuclear fusion protein) (S. pombe) (UniProt Q09684)
T1 sequence (chain, S-palmitoylated at cysteine 65 and 78 (MALDI MS/MS of the pulled-down protein)): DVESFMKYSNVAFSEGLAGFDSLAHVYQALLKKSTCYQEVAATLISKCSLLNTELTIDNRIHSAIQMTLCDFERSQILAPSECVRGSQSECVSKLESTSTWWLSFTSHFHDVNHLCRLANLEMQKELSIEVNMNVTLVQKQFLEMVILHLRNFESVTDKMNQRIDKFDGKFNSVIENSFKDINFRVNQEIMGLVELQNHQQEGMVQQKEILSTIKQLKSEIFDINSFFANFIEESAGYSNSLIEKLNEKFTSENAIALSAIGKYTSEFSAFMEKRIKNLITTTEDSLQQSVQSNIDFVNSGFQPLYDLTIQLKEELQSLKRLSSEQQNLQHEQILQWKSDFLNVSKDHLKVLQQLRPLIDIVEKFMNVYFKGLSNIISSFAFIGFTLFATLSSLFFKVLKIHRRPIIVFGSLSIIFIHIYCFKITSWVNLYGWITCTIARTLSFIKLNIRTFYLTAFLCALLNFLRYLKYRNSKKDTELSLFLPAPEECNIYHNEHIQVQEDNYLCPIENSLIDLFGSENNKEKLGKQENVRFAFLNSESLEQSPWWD
Experiment: co-IP; extracts of Sey1-flag strains expressing GFP-Tht1 or GFP; GFP-Trap agarose beads; NP-40 lysis buffer (1% NP-40, 150 mM NaCl, 2 mM EDTA); blots with anti-GFP and anti-flag

binding: binds
B1: Sey1-flag (protein, UniProt Q9UTE0 1-762)
chain: MSTASNRVSTQIVDEHKQFNNELPKFMQSVGLLDAGFNYHVVAVLGSQSTGKSTLLNNLFGTSFSVMDASKRQQTTKGIWLSKANNSPILVMDVEGTDGRERGEDQDFERKSALFSISTSEVIIVNMWENQVGLYQGSNMALLKTVLEVNLQLFHNKKERCLLQFVIRDFLGNTSMENLADTIMTDLNNIWASLSKPEGFENSVINDFFDVGFTGLPHKILCSDAFSEAVDSLRERFVDNNNSDYIFNVSYHKKIPADGFSLYTREIWDTIENNKDLDLPTQQQLLAQYRCDEIITEVMEPFSTACTILQKEFLPGNLCKDLPTKLLNMFETVIEAYDRQASRYNVHIYQKKKQELIASVDSHLYVFFQAQLNALHKELIKSFFDASNEFPSDTPFKESSSIKINELVNKMREEGESLSLPHVHWDVDPFILKLSEELTQNSETLCKEKLKEKLEELFTGFEFEVSEAVEVAFQKLSHNVWDTLLNEFLAAQNTTIEKIKNIVPFYVDIDDTKTTEEYIINFKKNSWLFFRKKIDSEMSEVLLQQRLRVYFEELFRYDSDGMPKLWKKSGTIDRDYRESLTKTLDLINVLASIKVSDGNYPDLNVDIKTLEPEYTSPASFFTILNRRRVSDISVNFKRSADLIFMDCKRSVINTTTRIPPYFWVLLIVLGWNEFMAILRNPFVFMILMFGGTVVYGLYISGLIWPAKMVLERATNNLVDLATDRFSNTYQEQVQQRAMQRTEKSGSPVASADDAEAEKTALS
